Patent US8653235B2 (Kwansei Gakuin Educational Foundation, priority 2010, dated 2014)
Ends that are not written are not given here.

Test: general procedure: Fmoc solid-phase peptide synthesis; Fmoc-Cys(Trt)-Trt(2-Cl) resin (2-chlorotrityl chloride resin, 0.70 mmol/g); HBTu/HOBt
Settings: oxidative folding step, trifluoroacetic acid salt, then desalinized

CGSIEQSC (cysteine pairing not given here)
final HPLC purity: 98.2%
